# US8680133B2, “Alkyl indole-3-carbinol-derived antitumor agents” (The Ohio State University Research Foundation, priority 2009, dated 2014)
# What was measured:
# Format in all cases: cell-based, human
# HOP-62 = test: NCI60 screening, Non-Small Cell Lung Cancer, HOP-62
# NCI-H522 = test: NCI60 screening, Non-Small Cell Lung Cancer, NCI-H522
# MOLT-4 = test: NCI60 screening, Leukemia, MOLT-4
# SW-620 = test: NCI60 screening, Colon Cancer, SW-620
# HCC-2998 = test: NCI60 screening, Colon Cancer, HCC-2998
# HT29 = test: NCI60 screening, Colon Cancer, HT29
# HCT-15 = test: NCI60 screening, Colon Cancer, HCT-15
# MDA-MB-231/ATCC = test: NCI60 screening, Breast Cancer, MDA-MB-231/ATCC
# MCF7 = test: NCI60 screening, Breast Cancer, MCF7
# EKVX = test: NCI60 screening, Non-Small Cell Lung Cancer, EKVX
# KM12 = test: NCI60 screening, Colon Cancer, KM12
# NCI-H23 = test: NCI60 screening, Non-Small Cell Lung Cancer, NCI-H23
# MDA-MB-435 = test: NCI60 screening, Melanoma, MDA-MB-435
# SK-OV-3 = test: NCI60 screening, Ovarian Cancer, SK-OV-3
# OVCAR-8 = test: NCI60 screening, Ovarian Cancer, OVCAR-8
# SNB-75 = test: NCI60 screening, CNS Cancer, SNB-75
# LOX IMVI = test: NCI60 screening, Melanoma, LOX IMVI
structure (smiles),measurement,setting,value
"Cc1ccc2c(c1)c(CO)cn2S(=O)(=O)c1ccc(Cl)c([N+](=O)[O-])c1 [OSU-A9M, [1-(4-chloro-3-nitro-benzenesulfonyl)-5-methyl-1H-indol-3-yl]-methanol]",Mean Optical Densities,HOP-62; Log10 Concentration −6.0,1.177
same,Mean Optical Densities,HOP-62; Log10 Concentration −7.0,1.159
same,Mean Optical Densities,HOP-62; Log10 Concentration −8.0,1.185
same,Mean Optical Densities,NCI-H522; Log10 Concentration −4.0,0.012
same,Mean Optical Densities,NCI-H522; Log10 Concentration −5.0,0.013
same,Mean Optical Densities,NCI-H522; Log10 Concentration −6.0,0.126
same,Mean Optical Densities,NCI-H522; Log10 Concentration −7.0,0.505
same,Mean Optical Densities,NCI-H522; Log10 Concentration −8.0,0.523
same,Mean Optical Densities,MOLT-4; Log10 Concentration −4.0,0.172
same,Mean Optical Densities,MOLT-4; Log10 Concentration −5.0,0.263
same,Mean Optical Densities,MOLT-4; Log10 Concentration −6.0,0.733
same,Mean Optical Densities,MOLT-4; Log10 Concentration −7.0,1.635
same,Mean Optical Densities,MOLT-4; Log10 Concentration −8.0,1.731
same,Mean Optical Densities,SW-620; Log10 Concentration −4.0,0.001
same,Mean Optical Densities,SW-620; Log10 Concentration −5.0,−0.010
same,Mean Optical Densities,SW-620; Log10 Concentration −6.0,0.777
same,Mean Optical Densities,SW-620; Log10 Concentration −7.0,1.011
same,Mean Optical Densities,SW-620; Log10 Concentration −8.0,1.064
same,Mean Optical Densities,HCC-2998; Log10 Concentration −4.0,0.005
same,Mean Optical Densities,HCC-2998; Log10 Concentration −5.0,0.002
same,Mean Optical Densities,HCC-2998; Log10 Concentration −6.0,1.421
same,Mean Optical Densities,HCC-2998; Log10 Concentration −7.0,1.533
same,Mean Optical Densities,HCC-2998; Log10 Concentration −8.0,1.574
same,Mean Optical Densities,HT29; Log10 Concentration −4.0,−0.029
same,Mean Optical Densities,HT29; Log10 Concentration −5.0,−0.034
same,Mean Optical Densities,HT29; Log10 Concentration −6.0,0.294
same,Mean Optical Densities,HT29; Log10 Concentration −7.0,0.772
same,Mean Optical Densities,HT29; Log10 Concentration −8.0,0.756
same,Mean Optical Densities,HCT-15; Log10 Concentration −4.0,−0.013
same,Mean Optical Densities,HCT-15; Log10 Concentration −5.0,−0.006
same,Mean Optical Densities,HCT-15; Log10 Concentration −6.0,1.090
same,Mean Optical Densities,HCT-15; Log10 Concentration −7.0,1.211
same,Mean Optical Densities,HCT-15; Log10 Concentration −8.0,1.193
same,Mean Optical Densities,MDA-MB-231/ATCC; Log10 Concentration −4.0,0.052
same,Mean Optical Densities,MDA-MB-231/ATCC; Log10 Concentration −5.0,0.038
same,Mean Optical Densities,MDA-MB-231/ATCC; Log10 Concentration −6.0,0.636
same,Mean Optical Densities,MDA-MB-231/ATCC; Log10 Concentration −7.0,0.723
same,Mean Optical Densities,MDA-MB-231/ATCC; Log10 Concentration −8.0,0.761
same,Mean Optical Densities,MCF7; Log10 Concentration −4.0,0.040
same,Mean Optical Densities,MCF7; Log10 Concentration −5.0,0.057
same,Mean Optical Densities,MCF7; Log10 Concentration −6.0,0.651
same,Mean Optical Densities,MCF7; Log10 Concentration −7.0,1.149
same,Mean Optical Densities,MCF7; Log10 Concentration −8.0,1.144
same,Mean Optical Densities,EKVX; Log10 Concentration −4.0,0.055
same,Mean Optical Densities,EKVX; Log10 Concentration −5.0,0.109
same,Mean Optical Densities,EKVX; Log10 Concentration −6.0,1.753
same,Mean Optical Densities,EKVX; Log10 Concentration −7.0,1.925
same,Mean Optical Densities,EKVX; Log10 Concentration −8.0,1.827
same,Mean Optical Densities,KM12; Log10 Concentration −4.0,−0.012
same,Mean Optical Densities,KM12; Log10 Concentration −5.0,−0.007
same,Mean Optical Densities,KM12; Log10 Concentration −6.0,1.420
same,Mean Optical Densities,KM12; Log10 Concentration −7.0,1.505
same,Mean Optical Densities,KM12; Log10 Concentration −8.0,1.591
same,Mean Optical Densities,NCI-H23; Log10 Concentration −4.0,0.016
same,Mean Optical Densities,NCI-H23; Log10 Concentration −5.0,0.009
same,Mean Optical Densities,NCI-H23; Log10 Concentration −6.0,0.788
same,Mean Optical Densities,NCI-H23; Log10 Concentration −7.0,0.826
same,Mean Optical Densities,NCI-H23; Log10 Concentration −8.0,0.836
same,Mean Optical Densities,MDA-MB-435; Log10 Concentration −4.0,0.039
same,Mean Optical Densities,MDA-MB-435; Log10 Concentration −5.0,0.031
same,Mean Optical Densities,MDA-MB-435; Log10 Concentration −6.0,1.691
same,Mean Optical Densities,MDA-MB-435; Log10 Concentration −7.0,1.761
same,Mean Optical Densities,MDA-MB-435; Log10 Concentration −8.0,1.881
same,Mean Optical Densities,SK-OV-3; Log10 Concentration −4.0,−0.013
same,Mean Optical Densities,SK-OV-3; Log10 Concentration −5.0,0.012
same,Mean Optical Densities,SK-OV-3; Log10 Concentration −6.0,1.006
same,Mean Optical Densities,SK-OV-3; Log10 Concentration −7.0,1.034
same,Mean Optical Densities,SK-OV-3; Log10 Concentration −8.0,1.026
same,Mean Optical Densities,OVCAR-8; Log10 Concentration −4.0,0.034
same,Mean Optical Densities,OVCAR-8; Log10 Concentration −5.0,0.074
same,Mean Optical Densities,OVCAR-8; Log10 Concentration −6.0,1.350
same,Mean Optical Densities,OVCAR-8; Log10 Concentration −7.0,1.406
same,Mean Optical Densities,OVCAR-8; Log10 Concentration −8.0,1.365
same,Mean Optical Densities,SNB-75; Log10 Concentration −4.0,−0.031
same,Mean Optical Densities,SNB-75; Log10 Concentration −5.0,−0.038
same,Mean Optical Densities,SNB-75; Log10 Concentration −6.0,1.082
same,Mean Optical Densities,SNB-75; Log10 Concentration −7.0,1.123
same,Mean Optical Densities,SNB-75; Log10 Concentration −8.0,1.252
same,Mean Optical Densities,LOX IMVI; Log10 Concentration −4.0,−0.025
same,Mean Optical Densities,LOX IMVI; Log10 Concentration −5.0,−0.017
same,Mean Optical Densities,LOX IMVI; Log10 Concentration −6.0,0.016
same,Mean Optical Densities,LOX IMVI; Log10 Concentration −7.0,0.356
same,Mean Optical Densities,LOX IMVI; Log10 Concentration −8.0,0.397
